# PubChem BioAssay AID1671190 (National Center for Advancing Translational Sciences (NCATS), 2021)
# Amino acid sequences for entries named in this document (tags omitted).
# UniProt P18054, whole entry, looked up: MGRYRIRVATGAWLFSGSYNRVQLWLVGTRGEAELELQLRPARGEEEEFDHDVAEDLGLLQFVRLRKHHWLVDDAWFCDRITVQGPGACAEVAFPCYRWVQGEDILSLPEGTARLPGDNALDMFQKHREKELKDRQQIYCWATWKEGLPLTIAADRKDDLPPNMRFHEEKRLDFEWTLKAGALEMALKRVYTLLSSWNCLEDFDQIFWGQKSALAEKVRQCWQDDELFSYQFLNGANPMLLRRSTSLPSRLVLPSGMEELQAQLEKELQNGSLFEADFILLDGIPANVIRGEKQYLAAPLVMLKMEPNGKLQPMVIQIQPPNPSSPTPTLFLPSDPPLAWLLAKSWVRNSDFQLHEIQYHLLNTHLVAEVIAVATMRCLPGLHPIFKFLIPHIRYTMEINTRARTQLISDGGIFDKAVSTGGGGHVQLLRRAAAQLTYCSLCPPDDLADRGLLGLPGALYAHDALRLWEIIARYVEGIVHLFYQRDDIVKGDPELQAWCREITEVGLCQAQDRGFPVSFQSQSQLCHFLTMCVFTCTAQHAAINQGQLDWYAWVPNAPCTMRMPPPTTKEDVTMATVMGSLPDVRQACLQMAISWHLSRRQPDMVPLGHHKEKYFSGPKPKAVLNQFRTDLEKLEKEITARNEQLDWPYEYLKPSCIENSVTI
# Several values for one entry are separate records, joined by “and”; a condition that tells them apart may be missing. Identical values can stand only once. In all, about 580,000 compounds went through this assay and about 6,100 (1.1%) were called active. The inconclusive results got no clear call from the source; some entries with a clear call stand among them for comparison. Calls follow the shape of the dose curve; as a rule, active = well fitted inhibition curve with a large enough effect; inconclusive = small, poorly fitted or top-dose-only effect, or another doubt; inactive = no such curve, though single readings can be large or run the other way. Potencies of inconclusive entries are doubtful fits and often do not repeat.
# Target: Polyunsaturated fatty acid lipoxygenase ALOX12 (Homo sapiens) (UniProt P18054)
# Test: Primary qHTS assay for inhibitors of human arachidonate 12S-lipoxygenase (ALOX12): Round 2
# Conditions: purified 12hLO, xylenol orange hydroperoxide absorbance; activity change, negative = inhibition: at 108 µM (top of the series)
# In short: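 Purified human 12hLO at 150 nM in 25 mM Hepes, 0.01% Triton X-100, pH 7.0, preincubated 15 min at room temperature with compound. Reaction started with 40 uM arachidonic acid, 30 min at room temperature. Hydroperoxide measured by Fe-xylenol orange, 573/405 nm absorbance ratio.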
# % is scaled to controls: 0 for no effect and ±100 for the full control effect; potency is read from the fitted curve at half-maximal effect.
SMILES,Potency,"activity change, negative = inhibition"
COc1ccc(OCC(=O)N2CCN(C/C=C/c3ccccc3)CC2)cc1,inactive,–
O=C1NC(=O)N(c2ccccc2)C(=O)/C1=C/c1ccc([N+](=O)[O-])s1,active: 39.8 µM,–
O=C(Nc1ccc2n(c1=O)C[C@H]1C[C@@H]2CN(C(=O)NC2CCCCC2)C1)c1ccco1,inactive,–
COC(=O)C1=C(c2ccccc2)C[C@@H]2CC[C@H]1N2C(=O)NCc1ccco1,"inconclusive: 112 µM [inhibitor, single point]",–
C=CCn1c(O)c(C(CC)=Nc2ccc(N(CC)CC)cc2)c(=O)[nH]c1=O,"inconclusive: 50.1 µM [inhibitor, partial curve, poor fit]",–
Clc1ccc(CCC(Cn2ccnc2)Sc2c(Cl)cccc2Cl)cc1 (stereo not drawn),"inactive and inconclusive: 100 µM [inhibitor, single point]",–
CCC(c1nnnn1C(C)(C)C)N1CCC2(CC1)C(=O)NCN2c1ccccc1 (stereo not drawn),"inconclusive: 100 µM [inhibitor, single point]",–
COC(/C(C)=C/C=C/C(C)=C/c1coc(C)n1)C(C)C1CC(O)C2(C)OC2C=CC(C)C2CC(CC(=O)O2)CC2OC2C(=O)O1 (stereo not drawn),"inconclusive: 112 µM [inhibitor, single point]",–
CC12CCC(O)CC1CC[C@@H]1[C@@H]2CCC2(C)[C@H](C3=CC(=O)OC3)CCC12O (stereo partly drawn),inactive,–
C[C@]12CC[C@@H](O)CC1=CC(=O)C1C2CC[C@]2(C)C(=O)[C@H](O)CC12 (stereo partly drawn),inactive,–
O=C1C2CCN(CC2)C1Cc1ccc(OCCOc2ccccc2)cc1 (stereo not drawn),"inconclusive: 50.1 µM [inhibitor, single point]",–
CNC(C)c1cccnc1 (stereo not drawn),"inconclusive: 0.462 µM [inhibitor, full curve]",–
O=C1NC(=O)N(c2ccccc2)C(=O)/C1=C/C=C/c1ccco1,"inconclusive: 44.7 µM [inhibitor, partial curve, poor fit]",–
COc1ccc(-c2cc([C@H]3CN4CC[C@H]3C[C@@H]4CNC(=O)NC(C)C)nc(C)n2)cc1OC,active: 31.6 µM,–
O=S(=O)(F)Cc1ccccc1,"inconclusive: 17.2 µM [inhibitor, single point]",–
O=C(C1CCCCC1)N1Cc2ccccc2-n2nncc2C1,inactive,–
C[C@@H]1O[C@H](O[C@@H]2C[C@@H](O)[C@]3(CO)[C@H]4[C@H](O)C[C@]5(C)[C@@H](C6=CC(=O)OC6)CC[C@@]5(O)[C@@H]4CC[C@]3(O)C2)[C@@H](O)[C@H](O)[C@H]1O,inactive,–
CC(=O)c1ccc(OC(C)C)c(Cc2c(O)[nH]c(=S)[nH]c2=O)c1,"inconclusive: 39.8 µM [inhibitor, partial curve]",–
CCOc1ccc(C2(C#N)CC[N+](C)(C)CC2)cc1,inactive,–
C[N+]1(CC(COCc2ccccc2)OC(=O)Cc2ccccc2)CCOCC1 (stereo not drawn),active: 39.8 µM,–
C[C@]12CC[C@H](O)CC1=CCC1C2CC[C@@]2(C)C1C[C@@H]1CC(=O)O[C@@H]12 (stereo partly drawn),inactive,–
O=C(Nc1nccs1)[C@H]1CN2CCC1C[C@@H]2Cn1cc(CO)nn1 (stereo partly drawn),"inconclusive: 28.2 µM [inhibitor, full curve, poor fit]",–
CCOC(=O)c1cccc(C2=C(CNC(=O)c3ccc([N+](=O)[O-])cc3)[C@H]3CC[C@@H](C2)N3Cc2ccccc2)c1,"inconclusive: 50.1 µM [inhibitor, partial curve, poor fit]",–

SMILES,Potency,"activity change, negative = inhibition"
CCN1CCN(c2ncnc3ccc(Br)cc23)CC1,"inconclusive: 50.1 µM [inhibitor, partial curve, poor fit]",–
COc1ccc(-n2c(C)cc(C(=O)C[N+]34CCN(CC3)CC4)c2C)cc1,"inconclusive: 50.1 µM [inhibitor, partial curve, poor fit]",–
O=C(Cc1ccccc1)N1CCN(C2CCCC2)CC1,active: 0.891 µM,–
COc1ccc(Br)cc1CNCCc1ccc2c(c1)OCO2,"inconclusive: 0.316 µM [inhibitor, full curve, poor fit]",–
CCn1cc(CN2CCN(C(=O)Cc3cccs3)CC2)ccc1=O,"inconclusive: 25.1 µM [inhibitor, single point]",–
C/C=C/C1(NCCc2ccccc2)CCCCC1,inactive,–
Cn1c(C(=O)N2CCC3(CC2)OCCO3)cc2c(=O)n(C)c3ccccc3c21,inactive,–
CCOC(=O)[C@]12Cc3ccc(C)cc3[C@H]1N(C1CCCCC1)C(=O)c1ccccc12,"inconclusive: 39.8 µM [inhibitor, partial curve, poor fit]",–
Cc1[nH]c2c(C)cccc2c1CCN,"inconclusive: 31.6 µM [inhibitor, partial curve, poor fit]",–
Cc1cccc(CC(=O)N2CC(N(Cc3ccccc3)C3CCOCC3)C2)c1,inactive,–
O=C1NC(=S)NC(=O)C12C(c1ccccc1)NC(=S)NC2c1ccccc1 (stereo not drawn),"inconclusive: 50.1 µM [inhibitor, partial curve, poor fit]",–
O=P1(NCCCl)OCCCN1CCCl (stereo not drawn),"inconclusive: 12.2 µM [inhibitor, single point]",–
COc1ccc(C(=O)c2c(C)n(CCN3CCOCC3)c3cc(I)ccc23)cc1,"inconclusive: 19.3 µM [inhibitor, partial curve, poor fit]",–
CN1C(=O)C(=Cc2c(OCc3cnc(Cl)s3)ccc3ccccc23)C(=O)N(C)C1=O,inactive,–
CCN(CC)c1ccc(CN(C)CCc2ccc(OC)c(OC)c2)cc1,"inconclusive: 0.794 µM [inhibitor, full curve]",–
COc1cc(N2C(=O)NC(=O)C3(Cc4cc(C)ccc4N(C)C3)C2=O)cc(OC)c1OC (stereo not drawn),"inconclusive: 39.8 µM [inhibitor, partial curve, poor fit]",–
c1ccc(N2CCC3(CCNCC3)CC2)cc1,"inconclusive: 31.6 µM [inhibitor, single point]",–
CCc1ccc(-n2nc(C)c3c2NC(=O)CSC3c2ccccc2C)cc1 (stereo not drawn),"inconclusive: 50.1 µM [inhibitor, partial curve, poor fit]",–
OCC#CC[N+]1(CC#Cc2ccccc2)CCCC1,–,inconclusive: -37.8% [inhibitor]
c1cc(CCN2CCCC2)ccn1,inactive,–
COc1ccc([C@H]2C[C@@H](O)[C@@H](O)[C@@H]2NCC2CCCC2)cc1,inactive,–
COc1cc(N2CCOCC2)ccc1/C=C1\C(=O)NC(=O)N(Cc2ccc3c(c2)OCO3)C1=O,"inconclusive: 44.7 µM [inhibitor, partial curve, poor fit]",–
C=CCn1c(O)c(C(C)=NCCN2CCN(C(=S)NC)CC2)c(=O)[nH]c1=O,inactive,–

SMILES,Potency,"activity change, negative = inhibition"
O=C1CC=C2C3CC4N(CCC45c4ccccc4N1C25)CC3=CCO (stereo not drawn),"inconclusive: 50.1 µM [inhibitor, partial curve, poor fit]",–
O=[S+]1([O-])NCC2(CCN(Cc3ccccc3)C2)Oc2ncccc21 (stereo not drawn),–,inactive: 4.54% [at 6.33 µM]
Cc1cccc(-n2c(O)c(C)c(=O)[nH]c2=S)c1,active: 44.7 µM,–
O=C1NC(=O)C2(Cc3ccccc3N3CCCC32)C(=O)N1c1ccc(Cl)cc1 (stereo not drawn),"inconclusive: 50.1 µM [inhibitor, partial curve, poor fit]",–
O=C(O)CCn1cc(C=C2C(=O)NC(=S)NC2=O)c(-c2cccc(Cl)c2)n1,"inconclusive: 39.8 µM [inhibitor, partial curve]",–
O=c1[nH]c(=O)n(Cc2ccc(F)cc2)c(O)c1C=NCCN1CCCCC1,inactive,–
Cc1ncc2c(n1)C[C@@H]1CC[C@H]2N1C(=O)Nc1ccccc1,inactive,–
CN1CCN(Cc2cc(C(C)(C)C)c(O)c(C(C)(C)C)c2)CC1,"inconclusive: 0.501 µM [inhibitor, full curve, poor fit]",–
Fc1ccccc1CNC1CN2CCC1CC2 (stereo not drawn),inactive,–
Cc1ccc(Cn2cccc(C(=O)Nc3nc4ccc(C)cc4s3)c2=O)cc1,inactive,–
Cc1ccccc1-n1c(O)c(/C=N/c2nccs2)c(=O)[nH]c1=O,"inconclusive: 50.1 µM [inhibitor, single point]",–
O=C1NC(=O)C(=Cc2ccc3c(c2)OCO3)C(=O)N1,"inconclusive: 56.2 µM [inhibitor, partial curve, poor fit]",–
CCCCC(=O)N/N=C/c1c(O)n(CCCC)c(=S)[nH]c1=O,"inconclusive: 28.2 µM [inhibitor, single point]",–
O=C(c1ccc(Cl)cc1)C1CCCN(C2CCSCC2)C1 (stereo not drawn),"inconclusive: 112 µM [inhibitor, single point]",–
CCOC(=O)[C@]12Cc3cc(OC)ccc3[C@H]1N(C1CCCCC1)C(=O)c1cc(OC)ccc12,"inconclusive: 56.2 µM [inhibitor, partial curve, poor fit]",–
Cc1ccc([C@@H]2CN(C(=O)c3ccco3)[C@@H]3C4CCN(CC4)[C@@H]32)cc1,"inconclusive: 100 µM [inhibitor, partial curve, poor fit]",–
CC12CN3CC(C)(CN(C1)P3(=O)Oc1ccccc1)C2=O (stereo not drawn),"inconclusive: 15.8 µM [inhibitor, partial curve, poor fit]",–
ClCCN1CCCC1,inactive,–
COc1cc(OC)c(OC)cc1CNCCc1ccc(OC)c(OC)c1,"inconclusive: 0.562 µM [inhibitor, full curve, poor fit]",–
COC[C@H]1C[C@@H](NCc2cn(C)c3ccccc23)[C@H](O)[C@@H]1O,inactive,–
CCC1CCCCN1C(=O)c1cn(C)c2ccccc12 (stereo not drawn),"inconclusive: 63.1 µM [inhibitor, single point]",–
CC=C(CC)C1(CC)C(=O)NC(=S)NC1=O,"inconclusive: 56.2 µM [inhibitor, partial curve, poor fit]",–
